Literature values, collected in US20260224597A1, “METHODS FOR ACTIVATING IMMUNE CELLS TO KILL BACTERIA” (The Texas A&M University System, priority 2023, published 2026).
At least one structure is not confirmed: it was looked up by name or label, or the drawing left a doubt.

Tested on: IP6K
Details: indirect, through interaction with PI3K (LY 294002), PI4K (PAO) or PLC (U73122); cited from earlier work

SMILES: O=c1cc(N2CCOCC2)oc2c(-c3ccccc3)cccc12 [LY 294002]
- IP6K activity: decrease IP6K activity
